The record followed here is publication PMC4669791.

Common to all, as to settings: remark: other sources report otherwise
Assay [1] deals with T1, Lon (293 cells transiently transfected with plasmid encoding Lon) (human), P36776.
T1 chain: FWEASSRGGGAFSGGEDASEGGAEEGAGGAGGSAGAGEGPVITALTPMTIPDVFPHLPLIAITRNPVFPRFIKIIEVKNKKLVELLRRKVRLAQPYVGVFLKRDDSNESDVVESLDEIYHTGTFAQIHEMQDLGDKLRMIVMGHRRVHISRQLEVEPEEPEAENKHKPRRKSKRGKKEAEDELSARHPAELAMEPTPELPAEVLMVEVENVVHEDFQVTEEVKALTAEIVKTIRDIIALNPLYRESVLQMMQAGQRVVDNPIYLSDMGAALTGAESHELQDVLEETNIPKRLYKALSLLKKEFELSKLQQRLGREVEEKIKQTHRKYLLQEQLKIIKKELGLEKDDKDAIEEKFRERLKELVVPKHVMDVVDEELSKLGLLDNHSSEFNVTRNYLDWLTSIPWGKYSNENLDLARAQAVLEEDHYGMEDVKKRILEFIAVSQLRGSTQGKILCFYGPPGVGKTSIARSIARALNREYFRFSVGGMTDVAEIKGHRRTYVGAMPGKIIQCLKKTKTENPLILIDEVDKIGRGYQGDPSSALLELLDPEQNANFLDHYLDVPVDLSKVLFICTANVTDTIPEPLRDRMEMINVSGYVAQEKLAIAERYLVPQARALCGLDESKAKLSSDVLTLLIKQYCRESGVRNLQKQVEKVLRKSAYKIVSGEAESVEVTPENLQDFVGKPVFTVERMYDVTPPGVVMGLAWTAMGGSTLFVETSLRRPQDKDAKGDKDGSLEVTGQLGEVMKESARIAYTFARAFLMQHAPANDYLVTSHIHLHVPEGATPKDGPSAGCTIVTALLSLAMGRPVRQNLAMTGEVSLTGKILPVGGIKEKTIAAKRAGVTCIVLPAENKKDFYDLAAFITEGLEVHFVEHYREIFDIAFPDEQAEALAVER
Description: co-IP; extracts of 293 cells transiently transfected with Hsp60 and Lon plasmids; IP with anti-Hsp60 and with anti-Lon, western blot. A general note: In western blotting, separated proteins are transferred to a membrane and probed.

Assay [2] has as its target T2, endogenous Lon (FADU cells) (human (endogenous in FADU)), P36776.
T2 chain: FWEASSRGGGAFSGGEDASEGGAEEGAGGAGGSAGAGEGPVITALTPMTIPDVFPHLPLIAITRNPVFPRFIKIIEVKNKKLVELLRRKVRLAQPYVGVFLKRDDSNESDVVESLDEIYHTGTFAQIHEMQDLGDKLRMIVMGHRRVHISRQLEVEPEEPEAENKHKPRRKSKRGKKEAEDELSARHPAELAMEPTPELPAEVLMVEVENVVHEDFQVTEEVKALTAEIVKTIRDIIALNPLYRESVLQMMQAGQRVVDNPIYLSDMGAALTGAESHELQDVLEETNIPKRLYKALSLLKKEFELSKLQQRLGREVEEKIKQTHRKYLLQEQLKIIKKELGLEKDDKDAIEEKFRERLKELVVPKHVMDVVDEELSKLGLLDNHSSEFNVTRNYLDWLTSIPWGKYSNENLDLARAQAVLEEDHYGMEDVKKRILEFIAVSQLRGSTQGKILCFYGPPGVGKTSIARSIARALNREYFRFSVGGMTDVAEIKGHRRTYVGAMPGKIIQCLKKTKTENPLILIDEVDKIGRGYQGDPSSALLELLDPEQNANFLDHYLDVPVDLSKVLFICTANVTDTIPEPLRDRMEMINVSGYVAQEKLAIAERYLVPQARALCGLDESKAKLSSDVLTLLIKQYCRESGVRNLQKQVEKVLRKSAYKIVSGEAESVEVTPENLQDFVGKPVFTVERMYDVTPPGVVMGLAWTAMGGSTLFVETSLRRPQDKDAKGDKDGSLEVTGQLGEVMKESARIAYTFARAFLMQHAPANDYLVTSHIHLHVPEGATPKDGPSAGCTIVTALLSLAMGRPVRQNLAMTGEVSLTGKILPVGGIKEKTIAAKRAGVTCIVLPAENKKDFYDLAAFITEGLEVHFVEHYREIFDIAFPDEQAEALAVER
The assay is described as follows: co-IP; FADU cells infected with vector or shRNAs for Hsp60, mtHsp70 or Lon; IP of endogenous proteins with anti-Lon, anti-mtHsp70 or anti-Hsp60, western blot.

For assay [3], the target named is Hsp60 (293 cells transiently transfected with plasmid encoding Hsp60), P10809. The assay is described as follows: co-IP; extracts of 293 cells transiently transfected with Hsp60 and Lon plasmids; IP with anti-Hsp60 and with anti-Lon, western blot.

No constants are given. Whether binding was seen depends on the method and setting. Binding seen in cells or lysates may run through a third protein. Some results given as binding are weak or reduced against the parent protein; the word gives no strength.

B1: Hsp60 (293 cells transiently transfected with plasmid encoding Hsp60), P10809 27-573 (protein)
chain: AKDVKFGADARALMLQGVDLLADAVAVTMGPKGRTVIIEQSWGSPKVTKDGVTVAKSIDLKDKYKNIGAKLVQDVANNTNEEAGDGTTTATVLARSIAKEGFEKISKGANPVEIRRGVMLAVDAVIAELKKQSKPVTTPEEIAQVATISANGDKEIGNIISDAMKKVGRKGVITVKDGKTLNDELEIIEGMKFDRGYISPYFINTSKGQKCEFQDAYVLLSEKKISSIQSIVPALEIANAHRKPLVIIAEDVDGEALSTLVLNRLKVGLQVVAVKAPGFGDNRKNQLKDMAIATGGAVFGEEGLTLNLEDVQPHDLGKVGEVIVTKDDAMLLKGKGDKAQIEKRIQEIIEQLDVTTSEYEKEKLNERLAKLSDGVAVLKVGGTSDVEVNEKKDRVTDALNATRAAVEEGIVLGGGCALLRCIPALDSLTPANEDQKIGIEIIKRTLKIPAMTIAKNAGVEGSLIVEKIMQSSSEVGYDAMAGDFVNMVEKGIIDPTKVVRTALLDAAGVASLLTTAEVVVTEIPKEEKDPGMGAMGGMGGGMGGGMF
Consider B1, for which the binding result in assay [1] was “binds”.

B2: Hsp60 (endogenous, FADU cells), P10809 27-573 (protein)
chain: AKDVKFGADARALMLQGVDLLADAVAVTMGPKGRTVIIEQSWGSPKVTKDGVTVAKSIDLKDKYKNIGAKLVQDVANNTNEEAGDGTTTATVLARSIAKEGFEKISKGANPVEIRRGVMLAVDAVIAELKKQSKPVTTPEEIAQVATISANGDKEIGNIISDAMKKVGRKGVITVKDGKTLNDELEIIEGMKFDRGYISPYFINTSKGQKCEFQDAYVLLSEKKISSIQSIVPALEIANAHRKPLVIIAEDVDGEALSTLVLNRLKVGLQVVAVKAPGFGDNRKNQLKDMAIATGGAVFGEEGLTLNLEDVQPHDLGKVGEVIVTKDDAMLLKGKGDKAQIEKRIQEIIEQLDVTTSEYEKEKLNERLAKLSDGVAVLKVGGTSDVEVNEKKDRVTDALNATRAAVEEGIVLGGGCALLRCIPALDSLTPANEDQKIGIEIIKRTLKIPAMTIAKNAGVEGSLIVEKIMQSSSEVGYDAMAGDFVNMVEKGIIDPTKVVRTALLDAAGVASLLTTAEVVVTEIPKEEKDPGMGAMGGMGGGMGGGMF
As for B2, the binding entry in assay [2] was “binds”.

B3: Lon (293 cells transiently transfected with plasmid encoding Lon), P36776 68-959 (enzyme)
chain: FWEASSRGGGAFSGGEDASEGGAEEGAGGAGGSAGAGEGPVITALTPMTIPDVFPHLPLIAITRNPVFPRFIKIIEVKNKKLVELLRRKVRLAQPYVGVFLKRDDSNESDVVESLDEIYHTGTFAQIHEMQDLGDKLRMIVMGHRRVHISRQLEVEPEEPEAENKHKPRRKSKRGKKEAEDELSARHPAELAMEPTPELPAEVLMVEVENVVHEDFQVTEEVKALTAEIVKTIRDIIALNPLYRESVLQMMQAGQRVVDNPIYLSDMGAALTGAESHELQDVLEETNIPKRLYKALSLLKKEFELSKLQQRLGREVEEKIKQTHRKYLLQEQLKIIKKELGLEKDDKDAIEEKFRERLKELVVPKHVMDVVDEELSKLGLLDNHSSEFNVTRNYLDWLTSIPWGKYSNENLDLARAQAVLEEDHYGMEDVKKRILEFIAVSQLRGSTQGKILCFYGPPGVGKTSIARSIARALNREYFRFSVGGMTDVAEIKGHRRTYVGAMPGKIIQCLKKTKTENPLILIDEVDKIGRGYQGDPSSALLELLDPEQNANFLDHYLDVPVDLSKVLFICTANVTDTIPEPLRDRMEMINVSGYVAQEKLAIAERYLVPQARALCGLDESKAKLSSDVLTLLIKQYCRESGVRNLQKQVEKVLRKSAYKIVSGEAESVEVTPENLQDFVGKPVFTVERMYDVTPPGVVMGLAWTAMGGSTLFVETSLRRPQDKDAKGDKDGSLEVTGQLGEVMKESARIAYTFARAFLMQHAPANDYLVTSHIHLHVPEGATPKDGPSAGCTIVTALLSLAMGRPVRQNLAMTGEVSLTGKILPVGGIKEKTIAAKRAGVTCIVLPAENKKDFYDLAAFITEGLEVHFVEHYREIFDIAFPDEQAEALAVER
For the molecule B3, the binding entry in assay [3] was “binds”.
